In the data set the test system is liver. Briefly: Liver gene expression analysis (RNA sequencing) and pathway analysis. Conditions: Bayes p < 0.01. Format: in vivo, APOE*3Leiden.CETP mice. As to the method:
To find early molecular signatures of other clinically relevant processes induced by the anti-CML drugs, gene expression and pathway analysis was performed in the liver as the central organ in lipid metabolism and synthesis of coagulation factors. To identify drug-specific molecular responses and overlap between the various treatments, the total number of differentially expressed genes (DEG) was assessed and a Venn-diagram was constructed comprising all DEG compared to control group. […]
Messenger RNA was isolated from liver of 8 mice per group, using the NEBNext Ultra RNA
sample Prep Kit. After fragmentation of the mRNA, cDNA synthesis was performed. The

The structures appear in SMILES notation.

`Cc1ccc(NC(=O)c2ccc(CN3CCN(C)CC3)cc2)cc1Nc1nccc(-c2cccnc2)n1` [Imatinib, imatinib]: the “Number of differentially expressed genes versus control group” value (“Number of differentially” for short) (150 mg/kg BID) is recorded as 1575.

On to `Cc1cn(-c2cc(NC(=O)c3ccc(C)c(Nc4nccc(-c5cccnc5)n4)c3)cc(C(F)(F)F)c2)cn1` [Nilotinib, nilotinib], for which the “Number of differentially” value by setting is: (10 mg/kg QD) 474; (30 mg/kg QD) 1066.

As for `Cc1ccc(C(=O)Nc2ccc(CN3CCN(C)CC3)c(C(F)(F)F)c2)cc1C#Cc1cnc2cccnn12` [Ponatinib, ponatinib], the “Number of differentially” value is reported as 504 (3 mg/kg QD) and 1344 (10 mg/kg QD).

The record behind these values is paper PMC6005845 (Frontiers in Cardiovascular Medicine, 2018).
